Laboratory results from US20190136259A1.
Where a chain is given by its changes, count along the chain named. In names and notes the source's numbering stands. Results are given in words; binding and its absence hold for the method and conditions named. Some results given as binding are weak or reduced against the parent protein; the word gives no strength.

Tests used:
Test in all cases: self-oligomerization with SUV liposomes and trypsin, western blot of membrane pellet (data not shown)
[1] = biological target: Cyt1Aa (SEQ ID NO: 2) (Bacillus thuringiensis) (UniProt P0A382)
[2] = biological target: Cyt1Aa-A59C variant (SEQ ID NO: 4) (Bacillus thuringiensis) (UniProt P0A382)
[3] = biological target: Cyt1Aa-A61C variant (SEQ ID NO: 6) (Bacillus thuringiensis) (UniProt P0A382)

B1: Cyt1Aa (SEQ ID NO: 2) (protein)
chain: MENLNHCPLEDIKVNPWKTPQSTARVITLRVEDPNEINNLLSINEIDNPNYILQAIMLANAFQNALVPTSTDFGDALRFSMPKGLEIANTITPMGAVVSYVDQNVTQTNNQVSVMINKVLEVLKTVLGVALSGSVIDQLTAAVTNTFTNLNTQKNEAWIFWGKETANQTNYTYNVLFAIQNAQTGGVMYCVPVGFEIKVSAVKEQVLFFTIQDSASYNVNIQSLKFAQPLVSSSQYPIADLTSAINGTL
**Q.** How did the binding [1] turn out when B1 was run?
**A.** binds

B2: Cyt1Aa-A59C variant (SEQ ID NO: 4) (protein)
chain: B1 chain with A59C
**Q.** For B2, which binding [2] is on record?
**A.** binds

B3: Cyt1Aa-A61C variant (SEQ ID NO: 6) (protein)
chain: B1 chain with A61C
**Q.** With B3 as the binder, how does the binding [3] read?
**A.** binds
